This passage reports survivor count and T/C results from PubChem BioAssay AID316 (DTP/NCI, 2004).

The list shows only some results of the screen, not a fair sample: it gathers tests that were run many times, whatever their T/C, doses with no T/C, and many T/C values between a quarter and a half above the control. Further doses and runs are listed elsewhere. T/C gives the treated animals as a percentage of the vehicle group. Some doses have a count of surviving animals in place of a T/C: the source files T/C as zero there, which appears to mark a toxic dose or a test without result, not a measured value. Some doses without a T/C left all or most animals alive at the check, yet need not have been tolerated: the source hardly ever lists a survival T/C far under the control, and the zero likely stands for such cases as well. Counts of survivors are from the toxicity check (mostly the fifth day) where no day follows; animals may have died later. Schedule codes are those of the source, read here as Q, the interval in days (D) or hours (H), X, the number of doses. Some entries were tested several times; the values are given in rising order. Some schedule codes hold Z or #, which are not explained here. Counts like (3×) say how often a value occurs here. Where survival is the endpoint, this PubChem deposit counts one and a half times the control or more as active, and values a quarter to a half above the control carry no call in these data; other NCI protocols may use other cut-offs. Some T/C values are followed by the survivors on the day toxicity was checked, most often the fifth; where none is given, no animal had died by that day.

The subject of the assay is P1534 leukemia ip, CD2F1 mice, survival T/C. The assay can be described thus: NCI In Vivo Anticancer Drug Screen. Data for tumor model P1534 Leukemia (intraperitoneal) in CD2F1 (CDF1) mice. As to conditions: T/C endpoint: mean survival time, higher T/C = longer survival. As for the experimental part:
The antitumor activity of compounds was measured in mice bearing transplantable tumors. Survival or tumor size were measured and the results are expressed as the measurement made in the treated group (T) divided by the measurement made in the vehicle treated control group (C). The tumor model used in this assay is P1534 Leukemia (intraperitoneal) in CD2F1 (CDF1) mice

The mark [1] stands for this setting: dose: 300.0 micrograms/kg/injection, schedule: Q01DX015 (ip), vehicle: saline.

With `CC[C@]1(O)C[C@H]2CN(CCc3c([nH]c4ccccc34)[C@@](C(=O)OC)(c3cc4c(cc3OC)N(C=O)[C@H]3[C@@](O)(C(=O)OC)[C@H](OC(C)=O)[C@]5(CC)C=CCN6CC[C@]43[C@@H]65)C2)C1`, the survivor count is 6 of 6 (dose: 0.06 mg/kg/injection, schedule: Q01DX010 (ip), vehicle: saline); 6 of 6 (dose: 0.12 mg/kg/injection, schedule: Q01DX010 (ip), vehicle: saline); 5 of 10, 6 of 10, 9 of 10 (dose: 1.0 mg/kg/injection, schedule: Q02DX008 (ip), vehicle: saline); 4 of 10 and 10 of 10 (dose: 1.2 mg/kg/injection, schedule: Q## X032 (ip), vehicle: saline); 1 of 10 and 7 of 10 (dose: 1.5 mg/kg/injection, schedule: Q02DX008 (ip), vehicle: saline); 6 of 10 and 9 of 10 (dose: 1.8 mg/kg/injection, schedule: Q## X004 (ip), vehicle: saline). Besides, the survivor count reads like this: (dose: 1.8 mg/kg/injection, schedule: Q## X032 (ip), vehicle: saline) 7 of 10; (dose: 2.0 mg/kg/injection, schedule: Q01DX001 (ip), vehicle: saline) 4 of 6, 5 of 6, 6 of 6; (dose: 2.7 mg/kg/injection, schedule: Q## X004 (ip), vehicle: saline) 3 of 10 and 8 of 10; (dose: 3.0 mg/kg/injection, schedule: Q01DX001 (ip), vehicle: saline) 4 of 10; (dose: 3.5 mg/kg/injection, schedule: Q01DX001 (ip), vehicle: saline) 2 of 10 and 5 of 10 (2×); (dose: 4.0 mg/kg/injection, schedule: Q01DX001 (ip), vehicle: saline) 0 of 6, 1 of 6, 2 of 10, 2 of 6, 3 of 6, 7 of 10, 5 of 6. Moreover, the survivor count reads like this: under setting [1], 10 of 10; (dose: 450.0 micrograms/kg/injection, schedule: Q01DX010 (ip), vehicle: saline) 6 of 10; (dose: 450.0 micrograms/kg/injection, schedule: Q01DX015 (ip), vehicle: saline) 7 of 10; (dose: 670.0 micrograms/kg/injection, schedule: Q01DX015 (ip), vehicle: saline) 2 of 10. In addition, the T/C runs as follows: (dose: 0.09 mg/kg/injection, schedule: Q02DX008 (ip), vehicle: saline) 127 % of control; (dose: 0.1 mg/kg/injection, schedule: Q## X004 (ip), vehicle: saline) 139 % of control; (dose: 0.16 mg/kg/injection, schedule: Q## X032 (ip), vehicle: saline, evaluated on day 45) 127 % of control; (dose: 0.16 mg/kg/injection, schedule: Q## X032 (ip), vehicle: saline, evaluated on day 46) 139 % of control; (dose: 0.25 mg/kg/injection, schedule: Q01DX001 (ip), vehicle: saline) 96 (2×), 97, 98 (3×), 102 (4×), 102 [4 of 6 alive], 103, 104, 107, 111, 112 % of control; (dose: 0.25 mg/kg/injection, schedule: Q01DX001 (ip), vehicle: water) 230, 268, 276, 283, 304 [5 of 6 alive], 322 (2×), 329 % of control. The T/C reads like this: (dose: 0.5 mg/kg/injection, schedule: Q01DX001 (ip), vehicle: saline, evaluated on day 30) 93, 95, 98 (6×), 98 [5 of 6 alive], 100 (4×), 102, 103, 107 % of control; (dose: 0.5 mg/kg/injection, schedule: Q01DX001 (ip), vehicle: saline, evaluated on day 46) 246 % of control; (dose: 0.5 mg/kg/injection, schedule: Q01DX001 (ip), vehicle: water) 255, 268, 280, 297, 310, 318, 330, 341 % of control; (dose: 1.0 mg/kg/injection, schedule: Q01DX001 (ip), vehicle: saline, evaluated on day 30) 87 [4 of 6 alive], 93 (2×), 94, 96, 98 (3×), 102 (6×), 103, 106 % of control; (dose: 1.0 mg/kg/injection, schedule: Q01DX001 (ip), vehicle: saline, evaluated on day 46) 207 and 225 % of control; (dose: 1.0 mg/kg/injection, schedule: Q01DX001 (ip), vehicle: water) 247, 266, 272, 285, 289, 305, 314, 331 % of control. Moreover, the T/C (dose: 1.2 mg/kg/injection, schedule: Q## X004 (ip), vehicle: saline) is 135 [8 of 9 alive] and 147 % of control; the T/C (dose: 2.0 mg/kg/injection, schedule: Q01DX001 (ip), vehicle: saline, evaluated on day 30) is 86 [5 of 6 alive], 90 [5 of 6 alive], 91, 97, 98, 98 [5 of 6 alive], 101 (2×), 102 [5 of 6 alive], 105 % of control; the T/C (dose: 2.0 mg/kg/injection, schedule: Q01DX001 (ip), vehicle: saline, evaluated on day 45) is 141 % of control; the T/C (dose: 2.0 mg/kg/injection, schedule: Q01DX001 (ip), vehicle: saline, evaluated on day 46) was 178 and 227 % of control; the T/C (dose: 2.0 mg/kg/injection, schedule: Q01DX001 (ip), vehicle: water) is 226, 249 [5 of 6 alive], 270, 272, 285 [5 of 6 alive], 308 [5 of 6 alive], 318, 333 % of control; the T/C (dose: 2.9 mg/kg/injection, schedule: Q01DX001 (ip), vehicle: saline) is 139 % of control. The T/C was 155 % of control (dose: 40.0 micrograms/kg/injection, schedule: Q01DX010 (ip), vehicle: saline, evaluated on day 45); 131, 155, 184 % of control (dose: 40.0 micrograms/kg/injection, schedule: Q01DX010 (ip), vehicle: saline, evaluated on day 46); 126 % of control (dose: 60.0 micrograms/kg/injection, schedule: Q01DX010 (ip), vehicle: saline, evaluated on day 45); 162, 173, 223 % of control (dose: 60.0 micrograms/kg/injection, schedule: Q01DX010 (ip), vehicle: saline, evaluated on day 46); 133 % of control [9 of 10 alive] (dose: 60.0 micrograms/kg/injection, schedule: Q01DX015 (ip), vehicle: saline); 158 % of control (dose: 90.0 micrograms/kg/injection, schedule: Q01DX010 (ip), vehicle: saline, evaluated on day 45). Moreover, the T/C (dose: 90.0 micrograms/kg/injection, schedule: Q01DX010 (ip), vehicle: saline, evaluated on day 46) is on record as 209, 247, 251 % of control; the T/C (dose: 135.0 micrograms/kg/injection, schedule: Q01DX010 (ip), vehicle: saline, evaluated on day 45) is 181 % of control; the T/C (dose: 135.0 micrograms/kg/injection, schedule: Q01DX010 (ip), vehicle: saline, evaluated on day 46) is 220, 237, 258 % of control; the T/C (dose: 200.0 micrograms/kg/injection, schedule: Q01DX010 (ip), vehicle: saline, evaluated on day 45) is 180 % of control; the T/C (dose: 200.0 micrograms/kg/injection, schedule: Q01DX010 (ip), vehicle: saline, evaluated on day 46) is 244, 246, 298 % of control; the T/C under setting [1] was 128 % of control [9 of 10 alive].
With `CCCNc1ncnc2c1cnn2C`, the survivor count (dose: 50.0 mg/kg/injection, schedule: Q01DX010 (ip), vehicle: saline) is recorded as 6 of 6.
On to `CS(=O)(=O)OCC(O)C(O)C(O)C(O)COS(C)(=O)=O` (stereo not drawn), for which the T/C (dose: 400.0 mg/kg/injection, schedule: Q01DX010 (ip), vehicle: saline) is 135 % of control.
In the case of `CC(=O)OCC1OC(n2ncc(=O)[nH]c2=O)C(OC(C)=O)C1OC(C)=O` (stereo not drawn), the survivor count (dose: 1014.0 mg/kg/injection, schedule: Q01DX010 (ip), vehicle: saline) is on record as 6 of 6.
Take `OCCOCCN1CCN(CCCN2c3ccccc3Sc3ccc(C(F)(F)F)cc32)CC1`: the survivor count (dose: 10.0 mg/kg/injection, schedule: Q01DX010 (ip), vehicle: saline) is 5 of 6; the survivor count (dose: 20.0 mg/kg/injection, schedule: Q01DX010 (ip), vehicle: saline) is reported as 6 of 6; the survivor count (dose: 40.0 mg/kg/injection, schedule: Q01DX010 (ip), vehicle: saline) is reported as 5 of 6; the survivor count (dose: 80.0 mg/kg/injection, schedule: Q01DX010 (ip), vehicle: saline) is 0 of 6.
